# Laboratory results as given in the supplement of paper PMC6411743.
# Sequences of proteins named here, by UniProt entry; tags and fusion partners are left off. A change or cut given only in a name is not applied to a line headed by its entry.
# UniProt Q8N128: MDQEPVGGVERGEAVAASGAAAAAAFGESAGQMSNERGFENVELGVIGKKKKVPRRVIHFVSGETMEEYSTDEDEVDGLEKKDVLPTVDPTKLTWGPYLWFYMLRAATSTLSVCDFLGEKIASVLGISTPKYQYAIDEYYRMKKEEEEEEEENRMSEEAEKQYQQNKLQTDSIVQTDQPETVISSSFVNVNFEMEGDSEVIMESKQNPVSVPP
# UniProt P22234: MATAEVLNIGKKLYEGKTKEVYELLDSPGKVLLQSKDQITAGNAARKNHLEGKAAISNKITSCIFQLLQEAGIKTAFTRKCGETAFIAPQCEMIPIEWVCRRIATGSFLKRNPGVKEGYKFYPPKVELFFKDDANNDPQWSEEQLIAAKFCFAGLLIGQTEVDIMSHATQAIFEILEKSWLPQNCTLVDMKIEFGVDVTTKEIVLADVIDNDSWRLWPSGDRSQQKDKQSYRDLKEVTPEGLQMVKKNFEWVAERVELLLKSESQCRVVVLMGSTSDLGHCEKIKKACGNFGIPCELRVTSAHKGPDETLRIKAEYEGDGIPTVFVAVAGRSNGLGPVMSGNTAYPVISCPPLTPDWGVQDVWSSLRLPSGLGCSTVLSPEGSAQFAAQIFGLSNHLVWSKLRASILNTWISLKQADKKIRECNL
# UniProt P27816: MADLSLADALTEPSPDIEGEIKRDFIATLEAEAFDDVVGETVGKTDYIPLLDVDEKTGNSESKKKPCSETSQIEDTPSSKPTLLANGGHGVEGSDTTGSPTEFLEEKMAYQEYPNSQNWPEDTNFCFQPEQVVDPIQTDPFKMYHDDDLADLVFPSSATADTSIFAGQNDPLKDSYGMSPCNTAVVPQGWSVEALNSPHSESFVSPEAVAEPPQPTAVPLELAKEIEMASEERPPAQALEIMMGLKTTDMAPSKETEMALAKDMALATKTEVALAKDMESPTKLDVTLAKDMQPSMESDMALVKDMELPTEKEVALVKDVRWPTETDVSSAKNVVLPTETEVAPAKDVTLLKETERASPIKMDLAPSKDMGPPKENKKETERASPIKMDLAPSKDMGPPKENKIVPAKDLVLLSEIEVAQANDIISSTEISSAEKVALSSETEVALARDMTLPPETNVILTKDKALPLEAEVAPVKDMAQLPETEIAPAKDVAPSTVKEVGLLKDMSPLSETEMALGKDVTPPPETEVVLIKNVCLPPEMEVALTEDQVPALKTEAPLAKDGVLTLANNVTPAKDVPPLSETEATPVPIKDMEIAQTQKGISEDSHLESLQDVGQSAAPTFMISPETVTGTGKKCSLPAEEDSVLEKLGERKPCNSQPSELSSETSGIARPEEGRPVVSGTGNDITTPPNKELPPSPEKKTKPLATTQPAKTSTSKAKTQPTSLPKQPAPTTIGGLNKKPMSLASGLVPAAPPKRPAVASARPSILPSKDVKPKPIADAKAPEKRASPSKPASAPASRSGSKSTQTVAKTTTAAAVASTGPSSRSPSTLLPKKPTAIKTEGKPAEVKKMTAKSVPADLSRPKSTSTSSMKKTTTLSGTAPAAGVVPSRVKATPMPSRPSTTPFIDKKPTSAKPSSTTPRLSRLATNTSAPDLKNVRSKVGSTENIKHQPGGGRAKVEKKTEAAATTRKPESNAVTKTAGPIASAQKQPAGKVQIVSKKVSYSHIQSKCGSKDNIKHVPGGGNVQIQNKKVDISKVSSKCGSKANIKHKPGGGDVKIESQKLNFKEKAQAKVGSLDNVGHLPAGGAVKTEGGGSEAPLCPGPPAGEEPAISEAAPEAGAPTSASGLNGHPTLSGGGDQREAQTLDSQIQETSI
# UniProt Q71RG4: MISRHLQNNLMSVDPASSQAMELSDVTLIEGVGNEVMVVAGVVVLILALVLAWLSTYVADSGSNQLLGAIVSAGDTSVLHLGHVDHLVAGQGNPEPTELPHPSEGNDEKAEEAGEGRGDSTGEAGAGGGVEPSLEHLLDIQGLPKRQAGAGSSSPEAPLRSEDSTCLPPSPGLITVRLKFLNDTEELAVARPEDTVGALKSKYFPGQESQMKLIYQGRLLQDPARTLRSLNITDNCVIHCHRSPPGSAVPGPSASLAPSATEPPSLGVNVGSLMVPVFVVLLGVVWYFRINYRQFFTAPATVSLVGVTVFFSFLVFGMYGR
# UniProt P60660, whole entry: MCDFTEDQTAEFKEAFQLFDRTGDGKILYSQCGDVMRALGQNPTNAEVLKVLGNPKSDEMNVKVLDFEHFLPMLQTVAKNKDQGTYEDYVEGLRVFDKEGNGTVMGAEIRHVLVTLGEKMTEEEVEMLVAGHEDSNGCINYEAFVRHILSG
# UniProt Q13952: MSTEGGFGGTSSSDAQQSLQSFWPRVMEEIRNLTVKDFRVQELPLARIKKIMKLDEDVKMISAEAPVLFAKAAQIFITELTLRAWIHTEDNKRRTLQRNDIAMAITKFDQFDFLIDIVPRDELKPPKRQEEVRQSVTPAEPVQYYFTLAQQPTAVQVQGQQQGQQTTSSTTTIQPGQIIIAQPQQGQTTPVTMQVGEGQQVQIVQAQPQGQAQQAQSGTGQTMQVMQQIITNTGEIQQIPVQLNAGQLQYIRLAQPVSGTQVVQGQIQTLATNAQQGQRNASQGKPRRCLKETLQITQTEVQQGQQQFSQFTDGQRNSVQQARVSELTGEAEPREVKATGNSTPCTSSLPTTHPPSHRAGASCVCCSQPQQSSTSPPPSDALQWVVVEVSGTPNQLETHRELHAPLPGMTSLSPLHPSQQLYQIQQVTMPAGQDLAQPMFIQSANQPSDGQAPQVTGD
# UniProt Q9H3J6: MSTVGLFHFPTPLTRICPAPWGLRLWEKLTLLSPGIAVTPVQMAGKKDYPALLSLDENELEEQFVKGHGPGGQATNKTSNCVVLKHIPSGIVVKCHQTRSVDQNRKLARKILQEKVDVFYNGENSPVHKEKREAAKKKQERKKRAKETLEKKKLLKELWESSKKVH
# UniProt P61020: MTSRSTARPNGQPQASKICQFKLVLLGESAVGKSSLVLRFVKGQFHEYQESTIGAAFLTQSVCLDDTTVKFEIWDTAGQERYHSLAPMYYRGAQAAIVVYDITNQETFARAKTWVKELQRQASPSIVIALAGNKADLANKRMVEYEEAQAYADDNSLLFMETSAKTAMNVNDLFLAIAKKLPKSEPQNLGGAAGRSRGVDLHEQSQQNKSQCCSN
# UniProt Q9NQX3: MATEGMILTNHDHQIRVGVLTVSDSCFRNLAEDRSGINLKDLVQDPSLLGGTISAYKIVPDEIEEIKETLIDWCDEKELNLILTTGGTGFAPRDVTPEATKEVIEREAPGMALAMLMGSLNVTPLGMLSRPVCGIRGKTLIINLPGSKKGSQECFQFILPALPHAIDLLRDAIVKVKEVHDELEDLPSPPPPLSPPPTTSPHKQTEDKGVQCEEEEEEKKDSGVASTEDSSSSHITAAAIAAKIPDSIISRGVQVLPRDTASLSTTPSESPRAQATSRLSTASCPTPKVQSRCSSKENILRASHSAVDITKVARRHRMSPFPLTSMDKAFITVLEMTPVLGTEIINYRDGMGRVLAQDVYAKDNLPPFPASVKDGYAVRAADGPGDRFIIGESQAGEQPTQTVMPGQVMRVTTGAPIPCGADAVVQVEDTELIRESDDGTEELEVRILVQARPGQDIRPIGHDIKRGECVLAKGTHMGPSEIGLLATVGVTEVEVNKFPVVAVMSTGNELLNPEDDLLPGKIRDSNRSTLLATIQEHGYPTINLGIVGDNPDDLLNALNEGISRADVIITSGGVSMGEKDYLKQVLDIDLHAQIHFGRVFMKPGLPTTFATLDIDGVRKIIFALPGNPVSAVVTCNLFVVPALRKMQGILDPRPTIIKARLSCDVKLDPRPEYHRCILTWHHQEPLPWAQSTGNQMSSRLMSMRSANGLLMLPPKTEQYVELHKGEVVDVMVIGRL
# UniProt Q96EK7: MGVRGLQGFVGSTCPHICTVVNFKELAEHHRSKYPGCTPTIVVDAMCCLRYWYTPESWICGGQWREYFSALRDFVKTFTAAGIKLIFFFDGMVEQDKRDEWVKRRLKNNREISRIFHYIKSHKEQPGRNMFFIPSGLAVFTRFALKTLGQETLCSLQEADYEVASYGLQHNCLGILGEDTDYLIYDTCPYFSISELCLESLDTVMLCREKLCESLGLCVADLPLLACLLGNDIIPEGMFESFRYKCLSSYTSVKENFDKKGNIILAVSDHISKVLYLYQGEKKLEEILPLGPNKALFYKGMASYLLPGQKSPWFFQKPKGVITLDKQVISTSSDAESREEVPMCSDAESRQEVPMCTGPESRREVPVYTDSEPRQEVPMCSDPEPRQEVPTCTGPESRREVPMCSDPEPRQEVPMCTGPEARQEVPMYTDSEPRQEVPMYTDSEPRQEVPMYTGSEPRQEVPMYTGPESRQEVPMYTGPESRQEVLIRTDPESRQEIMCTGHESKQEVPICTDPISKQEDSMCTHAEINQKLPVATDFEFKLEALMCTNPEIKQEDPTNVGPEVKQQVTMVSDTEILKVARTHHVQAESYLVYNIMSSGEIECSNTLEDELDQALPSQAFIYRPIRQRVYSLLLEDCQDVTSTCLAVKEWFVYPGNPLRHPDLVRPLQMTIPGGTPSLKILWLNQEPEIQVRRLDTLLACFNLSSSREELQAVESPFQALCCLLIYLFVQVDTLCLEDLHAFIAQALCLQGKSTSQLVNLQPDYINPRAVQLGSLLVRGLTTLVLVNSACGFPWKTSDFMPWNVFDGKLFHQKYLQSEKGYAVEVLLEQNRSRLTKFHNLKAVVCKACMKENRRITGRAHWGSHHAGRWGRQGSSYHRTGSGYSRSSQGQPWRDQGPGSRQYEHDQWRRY
# UniProt Q6NXE6: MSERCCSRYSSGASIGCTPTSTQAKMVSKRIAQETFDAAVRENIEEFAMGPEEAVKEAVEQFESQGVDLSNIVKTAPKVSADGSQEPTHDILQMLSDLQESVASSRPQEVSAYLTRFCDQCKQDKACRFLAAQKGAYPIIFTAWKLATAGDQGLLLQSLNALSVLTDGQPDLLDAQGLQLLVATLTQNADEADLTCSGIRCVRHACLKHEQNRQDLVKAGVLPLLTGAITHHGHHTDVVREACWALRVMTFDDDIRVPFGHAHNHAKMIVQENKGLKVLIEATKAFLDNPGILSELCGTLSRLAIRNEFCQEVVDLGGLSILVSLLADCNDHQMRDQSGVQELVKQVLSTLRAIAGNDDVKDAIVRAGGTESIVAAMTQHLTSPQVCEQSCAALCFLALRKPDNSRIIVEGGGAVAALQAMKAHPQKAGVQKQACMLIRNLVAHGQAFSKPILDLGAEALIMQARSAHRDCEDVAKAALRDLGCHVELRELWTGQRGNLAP
# UniProt Q5BKY9: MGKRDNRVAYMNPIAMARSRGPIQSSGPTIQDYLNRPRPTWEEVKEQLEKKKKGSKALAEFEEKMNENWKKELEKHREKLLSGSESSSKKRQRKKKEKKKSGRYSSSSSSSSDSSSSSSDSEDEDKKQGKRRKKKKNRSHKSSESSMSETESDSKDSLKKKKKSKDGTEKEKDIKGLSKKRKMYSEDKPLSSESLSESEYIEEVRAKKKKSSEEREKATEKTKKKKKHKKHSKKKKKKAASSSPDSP
# UniProt Q92560: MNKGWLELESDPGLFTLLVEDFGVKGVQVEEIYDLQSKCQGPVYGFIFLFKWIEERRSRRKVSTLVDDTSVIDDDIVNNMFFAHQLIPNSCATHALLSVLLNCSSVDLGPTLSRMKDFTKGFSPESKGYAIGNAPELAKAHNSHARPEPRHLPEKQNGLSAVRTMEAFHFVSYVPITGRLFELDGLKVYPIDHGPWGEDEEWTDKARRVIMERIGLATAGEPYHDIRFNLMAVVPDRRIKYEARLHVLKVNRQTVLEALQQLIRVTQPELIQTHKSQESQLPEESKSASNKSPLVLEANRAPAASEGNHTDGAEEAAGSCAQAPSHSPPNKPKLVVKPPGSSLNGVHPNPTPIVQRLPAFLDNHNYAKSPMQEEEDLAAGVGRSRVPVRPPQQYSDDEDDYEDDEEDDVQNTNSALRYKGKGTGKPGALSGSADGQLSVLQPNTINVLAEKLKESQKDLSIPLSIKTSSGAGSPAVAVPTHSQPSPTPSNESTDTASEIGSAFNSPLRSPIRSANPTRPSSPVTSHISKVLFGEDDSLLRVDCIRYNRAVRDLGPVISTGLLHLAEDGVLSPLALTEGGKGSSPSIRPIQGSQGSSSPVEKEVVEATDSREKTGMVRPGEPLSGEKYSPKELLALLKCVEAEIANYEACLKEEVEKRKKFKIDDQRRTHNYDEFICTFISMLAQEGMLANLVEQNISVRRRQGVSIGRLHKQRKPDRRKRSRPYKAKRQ
# UniProt O75251, whole entry: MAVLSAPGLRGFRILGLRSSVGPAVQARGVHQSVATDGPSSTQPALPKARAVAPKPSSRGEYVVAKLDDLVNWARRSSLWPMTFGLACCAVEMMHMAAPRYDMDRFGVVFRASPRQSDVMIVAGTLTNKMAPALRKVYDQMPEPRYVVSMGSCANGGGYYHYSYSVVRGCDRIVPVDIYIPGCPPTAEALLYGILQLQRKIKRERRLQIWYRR
# ± gives the standard deviation of the averaged measurements. The list shows a part of the results.
# Compound: Nc1nc2c(ncn2[C@@H]2O[C@H](COP(=O)(O)OP(=O)(O)OP(=O)(O)O)[C@@H](O)[C@H]2O)c(=O)[nH]1 [guanosine triphosphate]
# Experiment: NP40-soluble protein abundance relative to vehicle (solubility fold change) (ratio); higher = more soluble protein in presence of GTP
# Summary of the method: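 In three independent experiments, Jurkat crude lysate made by Dounce homogenisation was treated for 10 min at room temperature and then 3 min at 37 °C with eight concentrations ranging from 0.1 to 10 mM. It was then solubilised with 0.8% NP40 plus benzonase for 60 min at 4 °C and ultracentrifuged. The supernatant was TMT-labelled for LC-MS/MS, and each value is the fold change against the detergent-processed vehicle for the same replicate, using vsn-normalised intensities.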
Target,NP40-soluble protein abundance (concentration: 0.1mM),NP40-soluble protein abundance (concentration: 0.5mM),NP40-soluble protein abundance (concentration: 1mM),NP40-soluble protein abundance (concentration: 2mM),NP40-soluble protein abundance (concentration: 4mM),NP40-soluble protein abundance (concentration: 6mM),NP40-soluble protein abundance (concentration: 8mM),NP40-soluble protein abundance (concentration: 10mM)
E9PJQ6 and related entries (UniProt Q8IUX1),1.06 ± 0.085,1.07 ± 0.11,1.05 ± 0.11,1.03 ± 0.13,1.06 ± 0.058,1.04 ± 0.083,1.11 ± 0.15,1.05 ± 0.11
G3V583 and related entries (UniProt Q8N128),0.912 ± 0.089,0.928 ± 0.084,0.869 ± 0.13,0.94 ± 0.16,0.887 ± 0.16,0.861 ± 0.14,0.87 ± 0.1,0.902 ± 0.14
E9PGT3 and related entries (UniProt Q15418),1.02 ± 0.062,1.06 ± 0.066,0.99 ± 0.057,0.976 ± 0.071,0.995 ± 0.089,0.962 ± 0.061,0.941 ± 0.019,0.892 ± 0.07
E9PBS1 and related entries (UniProt P22234),0.941 ± 0.036,0.993 ± 0.078,0.926 ± 0.054,0.92 ± 0.076,0.917 ± 0.068,0.942 ± 0.087,0.9 ± 0.052,0.887 ± 0.055
E7EVA0 and related entries (UniProt P27816),0.927 ± 0.06,0.933 ± 0.077,0.957 ± 0.094,0.915 ± 0.12,0.92 ± 0.12,0.955 ± 0.14,1.01 ± 0.1,0.994 ± 0.12
E9PKV2 and related entries (UniProt Q9NRX2),1.04 ± 0.22,1.04 ± 0.14,1.28 ± 0.37,1.37 ± 0.42,1.25 ± 0.29,1.3 ± 0.38,1.31 ± 0.39,1.27 ± 0.53
F2Z3N7 and related entries (UniProt Q9NUM4),0.98 ± 0.036,0.932 ± 0.076,1.15 ± 0.077,1.06 ± 0.048,0.84 ± 0.18,0.949 ± 0.045,0.989 ± 0.051,0.969 ± 0.078
E7ESS3 and related entries (UniProt Q71RG4),0.947 ± 0.14,0.972 ± 0.18,1.03 ± 0.17,1.02 ± 0.21,1.05 ± 0.2,1 ± 0.27,0.948 ± 0.059,0.894 ± 0.091
F1T0I1 and related entries (UniProt O15027),0.995 ± 0.023,1.05 ± 0.018,1.12 ± 0.02,1.15 ± 0.028,1.16 ± 0.04,1.14 ± 0.029,1.21 ± 0.096,1.2 ± 0.094
E9PDP5 and related entries (UniProt Q8IWZ3),0.994 ± 0.056,0.987 ± 0.076,1.01 ± 0.082,0.971 ± 0.086,0.957 ± 0.066,0.942 ± 0.047,0.978 ± 0.045,0.965 ± 0.06
G3V1V0 and related entries (UniProt P60660),0.82 ± 0.15,0.834 ± 0.13,0.971 ± 0.12,0.97 ± 0.15,0.983 ± 0.19,0.988 ± 0.15,0.966 ± 0.11,1.1 ± 0.23
E9PP50 and related entries (UniProt P23528),0.893 ± 0.054,0.906 ± 0.066,0.894 ± 0.066,0.823 ± 0.076,0.819 ± 0.068,0.839 ± 0.078,0.84 ± 0.066,0.821 ± 0.081
E7EVY0 and related entries (UniProt Q15070),1.07 ± 0.039,0.993 ± 0.033,1.05 ± 0.033,1.04 ± 0.06,1.11 ± 0.086,1.02 ± 0.078,1.04 ± 0.066,0.979 ± 0.036
E9PI99 and related entries (UniProt Q13952),0.889 ± 0.014,0.887 ± 0.037,0.929 ± 0.025,0.925 ± 0.021,0.945 ± 0.039,0.928 ± 0.025,0.892 ± 0.035,0.919 ± 0.031
F5GWJ6 and related entries (UniProt Q9H3J6),0.955 ± 0.11,0.97 ± 0.081,1.16 ± 0.17,1.18 ± 0.027,1.21 ± 0.12,1.29 ± 0.097,1.24 ± 0.032,1.48 ± 0.11
F8VVZ0 and related entries (UniProt P61020),0.989 ± 0.017,1.01 ± 0.055,0.944 ± 0.095,0.932 ± 0.081,0.891 ± 0.023,0.928 ± 0.12,0.903 ± 0.14,0.87 ± 0.065
G3V1R7 and related entries (UniProt O14975),1.04 ± 0.073,1.06 ± 0.046,1.03 ± 0.12,1.03 ± 0.1,1.06 ± 0.043,0.991 ± 0.096,1.01 ± 0.058,1.03 ± 0.14
F5H039 and related entries (UniProt Q9NQX3),0.979 ± 0.053,0.991 ± 0.023,0.987 ± 0.042,0.982 ± 0.046,0.981 ± 0.033,0.991 ± 0.034,1 ± 0.057,0.978 ± 0.065
E7EQY1 and related entries (UniProt Q96C01),0.879 ± 0.058,0.859 ± 0.03,1.03 ± 0.07,0.987 ± 0.047,0.976 ± 0.039,0.983 ± 0.073,0.975 ± 0.11,1.07 ± 0.064
F5GY05 (UniProt Q96EK7),1.06 ± 0.034,1 ± 0.11,1.01 ± 0.036,1.06 ± 0.083,1 ± 0.047,0.99 ± 0.042,1.05 ± 0.083,1.05 ± 0.13
F5H3X1 and related entries (UniProt Q6NXE6),1.01 ± 0.023,1.01 ± 0.02,0.974 ± 0.03,0.964 ± 0.038,0.937 ± 0.044,0.924 ± 0.017,0.915 ± 0.023,0.903 ± 0.031
G3XAI9 and related entries (UniProt Q5BKY9),0.887 ± 0.087,0.888 ± 0.084,0.976 ± 0.11,0.859 ± 0.12,0.835 ± 0.14,0.803 ± 0.13,0.803 ± 0.1,0.817 ± 0.083
E9PEN0 and related entries (UniProt Q8WYH8),1.1 ± 0.098,1.07 ± 0.16,1.26 ± 0.41,1.19 ± 0.26,1.33 ± 0.3,1.5 ± 0.35,1.48 ± 0.39,2 ± 0.59
F8W6N3 and related entries (UniProt Q92560),0.959 ± 0.067,0.997 ± 0.14,1.03 ± 0.093,1.05 ± 0.14,1.06 ± 0.11,1.09 ± 0.085,1.09 ± 0.13,1.08 ± 0.17
F5GXJ1 and related entries (UniProt O75251),1.05 ± 0.07,1.11 ± 0.057,1.03 ± 0.013,1.1 ± 0.074,1.07 ± 0.016,1.07 ± 0.048,1.05 ± 0.039,1.03 ± 0.07

# Retrieved one by one from above, two records:
Target,NP40-soluble protein abundance (concentration: 0.1mM),NP40-soluble protein abundance (concentration: 0.5mM),NP40-soluble protein abundance (concentration: 1mM),NP40-soluble protein abundance (concentration: 2mM),NP40-soluble protein abundance (concentration: 4mM),NP40-soluble protein abundance (concentration: 6mM),NP40-soluble protein abundance (concentration: 8mM),NP40-soluble protein abundance (concentration: 10mM)
G3V583 and related entries (UniProt Q8N128),0.912 ± 0.089,0.928 ± 0.084,0.869 ± 0.13,0.94 ± 0.16,0.887 ± 0.16,0.861 ± 0.14,0.87 ± 0.1,0.902 ± 0.14
F5GY05 (UniProt Q96EK7),1.06 ± 0.034,1 ± 0.11,1.01 ± 0.036,1.06 ± 0.083,1 ± 0.047,0.99 ± 0.042,1.05 ± 0.083,1.05 ± 0.13
